In PMC4202265 one finds binding data, which are given here for one substance.

Sequences of proteins named here, by UniProt entry; tags and fusion partners are left off. A change or cut given only in a name is not applied to a line headed by its entry. Residues count along the entry.
UniProt P60033: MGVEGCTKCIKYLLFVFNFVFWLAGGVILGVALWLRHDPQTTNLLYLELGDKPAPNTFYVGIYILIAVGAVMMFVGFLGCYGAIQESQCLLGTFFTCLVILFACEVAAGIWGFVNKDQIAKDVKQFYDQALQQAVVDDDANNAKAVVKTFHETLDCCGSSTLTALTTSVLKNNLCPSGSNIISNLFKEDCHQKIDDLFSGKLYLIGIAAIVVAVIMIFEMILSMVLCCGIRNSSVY
UniProt O92972, residues 384-746: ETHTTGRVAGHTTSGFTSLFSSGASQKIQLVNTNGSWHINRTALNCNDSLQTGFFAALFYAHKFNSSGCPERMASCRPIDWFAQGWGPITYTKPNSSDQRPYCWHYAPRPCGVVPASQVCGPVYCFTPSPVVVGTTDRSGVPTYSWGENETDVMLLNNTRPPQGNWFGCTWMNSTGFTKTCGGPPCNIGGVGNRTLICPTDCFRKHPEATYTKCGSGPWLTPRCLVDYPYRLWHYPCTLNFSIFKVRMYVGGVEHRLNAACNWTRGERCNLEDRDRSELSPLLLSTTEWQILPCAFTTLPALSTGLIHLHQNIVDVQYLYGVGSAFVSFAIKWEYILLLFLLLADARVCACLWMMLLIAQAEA

These are yes or no findings as the source states them, for the method shown. Binding seen in cells or lysates may run through a third protein. A result given as binding can be weak or reduced; the word gives no strength.

This assay concerns the target recombinant CD81 large extracellular loop (LEL) fused to maltose binding protein (UniProt P60033). Kind of assay: pull-down; MBP–CD81 (3.75 µg) incubated with 450 µl detergent-free lysate of transduced Huh7 or Huh7 FK5.1neo cells, 4 °C, 1 h; captured on amylose resin in TNE buffer, washed; bound material immunoblotted for E2 and core; only the target purified.

Take “HCV envelope protein E2, genotype 1b, expressed from the C-E1-E2-p7 cassette of baculovirus BacC-p7(1b) (from UniProt O92972 384-746)”: the binding entry was “binds”.
